The results in this text go back to US20250283871A1, “COMPOSITIONS AND METHODS FOR MODULATING THE INTERACTION BETWEEN SS18-SSX FUSION ONCOPROTEIN AND NUCLEOSOMES” (Dana-Farber Cancer Institute, Inc., priority 2020, published 2025).

B1: NTPCR (protein, UniProt Q9BSD7 2-190, looked up)
Cancer-related …: ARHVFLTGPPGVGKTTLIHKASEVLKSSGVPVDGFYTEEVRQGGRRIGFDVVTLSGTRGPLSRVGLEPPPGKRECRVGQYVVDLTSFEQLALPVLRNADCSSGPGQRVCVIDEIGKMELFSQLFIQAVRQTLSTPGTIILGTIPVPKGKPLALVEEIRNRKDVKVFNVTKENRNHLLPDIVTCVQSSRK
B2: CHCHD3 (protein, UniProt Q9NX63 2-227, looked up)
MICOS complex subunit MIC19: GGTTSTRRVTFEADENENITVVKGIRLSENVIDRMKESSPSGSKSQRYSGAYGASVSDEELKRRVAEELALEQAKKESEDQKRLKQAKELDRERAAANEQLTRAILRERICSEEERAKAKHLARQLEEKDRVLKKQDAFYKEQLARLEERSSEFYRVTTEQYQKAAEEVEAKFKRYESHPVCADLQAKILQCYRENTHQTLKCSALATQYMHCVNHAKQSMLEKGG
B3: SCAMP3 (protein, UniProt O14828 1-347, looked up)
Secretory carrier-associated …: MAQSRDGGNPFAEPSELDNPFQDPAVIQHRPSRQYATLDVYNPFETREPPPAYEPPAPAPLPPPSAPSLQPSRKLSPTEPKNYGSYSTQASAAAATAELLKKQEELNRKAEELDRRERELQHAALGGTATRQNNWPPLPSFCPVQPCFFQDISMEIPQEFQKTVSTMYYLWMCSTLALLLNFLACLASFCVETNNGAGFGLSILWVLLFTPCSFVCWYRPMYKAFRSDSSFNFFVFFFIFFVQDVLFVLQAIGIPGWGFSGWISALVVPKGNTAVSVLMLLVALLFTGIAVLGIVMLKRIHSLYRRTGASFQKAQQEFAAGVFSNPAVRTAAANAAAGAAENAFRAP
B4: NIPSNAP1 (protein, UniProt Q9BPW8 36-284, looked up)
Protein NipSnap homolog 1: SKDNEGSWFRSLFVHKVDPRKDAHSTLLSKKETSNLYKIQFHNVKPEYLDAYNSLTEAVLPKLHLDEDYPCSLVGNWNTWYGEQDQAVHLWRFSGGYPALMDCMNKLKNNKEYLEFRRERSQMLLSRRNQLLLEFSFWNEPQPRMGPNIYELRTYKLKPGTMIEWGNNWARAIKYRQENQEAVGGFFSQIGELYVVHHLWAYKDLQSREETRNAAWRKRGWDENVYYTVPLVRHMESRIMIPLKISPLQ
B5: ATAD3B (protein, UniProt Q5T9A4 2-648, looked up)
ATPase family AAA …: SWLFGVNKGPKGEGAGPPPPLPPAQPGAEGGGDRGLGDRPAPKDKWSNFDPTGLERAAKAARELEHSRYAKEALNLAQMQEQTLQLEQQSKLKEYEAAVEQLKSEQIRAQAEERRKTLSEETRQHQARAQYQDKLARQRYEDQLKQQQLLNEENLRKQEESVQKQEAMRRATVEREMELRHKNEMLRVETEARARAKAERENADIIREQIRLKASEHRQTVLESIRTAGTLFGEGFRAFVTDRDKVTATVAGLTLLAVGVYSAKNATAVTGRFIEARLGKPSLVRETSRITVLEALRHPIQVSRRLLSRPQDVLEGVVLSPSLEARVRDIAIATRNTKKNRGLYRHILLYGPPGTGKTLFAKKLALHSGMDYAIMTGGDVAPMGREGVTAMHKLFDWANTSRRGLLLFMDEADAFLRKRATEEISKDLRATLNAFLYHMGQHSNKFMLVLASNLPEQFDCAINSRIDVMVHFDLPQQEERERLVRLHFDNCVLKPATEGKRRLKLAQFDYGRKCSEVARLTEGMSGREIAQLAVSWQATAYASKDGVLTEAMMDACVQDAVQQYRQKMRWLKAEGPGRGVEHPLSGVQGETLTSWSLATDPSYPCLAGPCTFRICSWMGTGLCPGPLSPRMSCGGGRPFCPPGHPLL
B6: ABCB10 (protein, UniProt Q9NRK6 106-738, looked up)
ATP-binding cassette …: AGPGAPRLPRARFPGGPAAAAWAGDEAWRRGPAAPPGDKGRLRPAAAGLPEARKLLGLAYPERRRLAAAVGFLTMSSVISMSAPFFLGKIIDVIYTNPTVDYSDNLTRLCLGLSAVFLCGAAANAIRVYLMQTSGQRIVNRLRTSLFSSILRQEVAFFDKTRTGELINRLSSDTALLGRSVTENLSDGLRAGAQASVGISMMFFVSPNLATFVLSVVPPVSIIAVIYGRYLRKLTKVTQDSLAQATQLAEERIGNVRTVRAFGKEMTEIEKYASKVDHVMQLARKEAFARAGFFGATGLSGNLIVLSVLYKGGLLMGSAHMTVGELSSFLMYAFWVGISIGGLSSFYSELMKGLGAGGRLWELLEREPKLPFNEGVILNEKSFQGALEFKNVHFAYPARPEVPIFQDFSLSIPSGSVTALVGPSGSGKSTVLSLLLRLYDPASGTISLDGHDIRQLNPVWLRSKIGTVSQEPILFSCSIAENIAYGADDPSSVTAEEIQRVAEVANAVAFIRNFPQGFNTVVGEKGVLLSGGQKQRIAIARALLKNPKILLLDEATSALDAENEYLVQEALDRLMDGRTVLVIAHRLSTIKNANMVAVLDQGKITEYGKHEELLSKPNGIYRKLMNKQSFISA
B7: L2HGDH (protein, UniProt Q9H9P8 52-463, looked up)
L-2-hydroxyglutarate …: VIVGGGIVGLASARALILRHPSLSIGVLEKEKDLAVHQTGHNSGVIHSGIYYKPESLKAKLCVQGAALLYEYCQQKGISYKQCGKLIVAVEQEEIPRLQALYEKGLQNGVPGLRLIQQEDIKKKEPYCRGLMAIDCPHTGIVDYRQVALSFAQDFQEAGGSVLTNFEVKGIEMAKESPSRSIDGMQYPIVIKNTKGEEIRCQYVVTCAGLYSDRISELSGCTPDPRIVPFRGDYLLLKPEKCYLVKGNIYPVPDSRFPFLGVHFTPRMDGSIWLGPNAVLAFKREGYRPFDFSATDVMDIIINSGLIKLASQNFSYGVTEMYKACFLGATVKYLQKFIPEITISDILRGPAGVRAQALDRDGNLVEDFVFDAGVGDIGNRILHVRNAPSPAATSSIAISGMIADEVQQRFEL

The first data set concerns BAF complex subunits and histone proteins. The data set is described as follows: Mass spectrometry proteomics of purified HA-SS18 WT and HA-SS18-SSX1 complexes (Tables 5A-5E). Also on record: species or system human. To be noted: HA-SS18SSX1 purification, NE (soluble nuclear extract) fraction, HEK-293T; peptides per identified protein.
Take B1: the “Total (total peptides)” value was determined as 4 and the “Unique (unique peptides)” value amounted to 4.

As for B2, the “Total (total peptides)” value was 4 and the “Unique (unique peptides)” value is 4.

Consider B3, for which the “Total (total peptides)” value was found to be 4 and the “Unique (unique peptides)” value worked out at 4.

As for B4, the “Total (total peptides)” value stood at 4 and the “Unique (unique peptides)” value worked out at 4.

On to B5, for which the “Total (total peptides)” value amounted to 4 and the “Unique (unique peptides)” value amounted to 4.

For the molecule B6, the “Total (total peptides)” value is reported as 4 and the “Unique (unique peptides)” value is given as 4.

Turning to B7, the “Total (total peptides)” value is 4 and the “Unique (unique peptides)” value was 4.

The same data set, now with this note: HA-SS18WT_CHR_peptides: protein identified in HA-SS18 WT BAF complex purification from nuclease-treated solubilized chromatin (CHR), HEK-293T.
On to B2, for which the “Total (total peptides)” value is 1 and the “Unique (unique peptides)” value is on record as 1.

Still in this data set, the particulars now being: HA-SS18WT_NE_peptides: HA-SS18 WT complexes purified from nuclear extract (NE), HEK-293T; label = protein identified (Gene Symbol).
For the molecule B1, the “Total (peptides)” value was 5 and the “Unique (peptides)” value was found to be 5.

For B2, the “Total (peptides)” value is 3 and the “Unique (peptides)” value is 3.

With B3, the “Total (peptides)” value was found to be 5 and the “Unique (peptides)” value is 5.

As for B4, the “Total (peptides)” value was 6 and the “Unique (peptides)” value came out at 6.

Take B5: the “Total (peptides)” value turned out to be 4 and the “Unique (peptides)” value is given as 4.

On to B6, for which the “Total (peptides)” value is given as 5 and the “Unique (peptides)” value was 5.

For B7, the “Total (peptides)” value is reported as 5 and the “Unique (peptides)” value is 4.
